The source of these data is paper PMC12670160, “A drug-repurposing screen of FDA- and EMA-approved drugs identifies two NF-κB inhibitors active against eumycetoma” (Journal of Antimicrobial Chemotherapy, 2025).

Where a name gives a salt, the structure may show the parent alone. Out of some 5,300 compounds screened, about 130 (2.5%) showed an effect of 50% or more. Some of the results follow.

The experiment has as its system M. mycetomatis strain mm55. The following applies: primary screen, metabolic activity vs growth control; 96 h, 2 µM; inhibitor.
In the case of `CC(=O)Oc1cccc(C(=O)O)c1OC(C)=O` [ONC0002835, dipyrocetyl], the “% viability” value came out at 97.19%.
For `c1ccc(N2CCN(CCCOc3ccc4c(c3)OCO4)CC2)cc1` [ONC0001583, bp554] the value was 98.14%.
Consider `Oc1ccc(-c2nc(-c3ccncc3)c(-c3ccc(F)cc3)[nH]2)cc1` [ONC0000026, sb202190], for which the “% viability” value is on record as 54.44%.
Consider `CCn1cc(C(=O)O)c(=O)c2cc(F)c(N3CCNCC3)cc21` [ONC0000382, norfloxacin], for which the “% viability” value came out at 90.58%.
Regarding `C[C@]12CC[C@H](O)CC1=CC[C@@H]1[C@@H]2CC[C@]2(C)C(=O)CC[C@@H]12` [ONC0003994, prasterone], the “% viability” value amounted to 65.2%.
Regarding `N[C@@H](C(=O)O)c1ccc(O)c(C(=O)O)c1` [ONC0001483, 3carboxy4hydroxyphenylglyciner], the “% viability” value is on record as 93.89%.
As for `CC(C)CNc1nc(-c2cccc3ncccc23)cn2c(-c3ccc(C(=O)NC4CC4)cc3)cnc12` [ONC0001261, mpsbay2a], the “% viability” value is on record as 100.7%.
The result for `CC(C)C[C@H](NC(=O)CNC(=O)c1cc(Cl)ccc1Cl)B1OC(=O)CC(CC(=O)O)(C(=O)O)O1` (some centres unmarked) [ONC0004630, ixazomib citrate mln9708] reads 70.19%.
For `CCCC[C@]1(CC)CS(=O)(=O)c2cc(CNC(CC(=O)O)CC(=O)O)c(OC)cc2[C@@H](c2ccccc2)N1` [ONC0001047, iinerixibat] the value was 91.57%; for `Nc1ncnc2c1c(-c1cccc(OCc3ccccc3)c1)cn2C1CC(CN2CCCC2)C1` (stereo in doubt) [ONC0000263, nvpadw742], 57.9%; for `CCOC(=O)C1=C(C)NC(C)=C(C(=O)OC)C1c1cccc([N+](=O)[O-])c1` (centres unmarked) [ONC0002416, nitrendipine], 95.63%.
The result for `Cc1nc2c(OCc3ccccc3)cccn2c1CC#N` [ONC0002660, sch28080] reads 71.4%; that for `C[C@@]12CC[C@@H]3[C@@](CC[C@H]4[C@@]3(C)CCC[C@@]4(C)C(=O)O)(CC1=O)C2` [ONC0002858, isosteviol], 83.56%.
For the compound `Cc1c[nH]c(-c2cnc(NCCNc3ccc(C#N)cn3)nc2-c2ccc(Cl)cc2Cl)n1` [ONC0004531, chir99021 ct99021 hcl], the “% viability” value stood at 57.04%.
The result for `NS(=O)(=O)c1cc2c(cc1C(F)(F)F)NC(Cc1ccccc1)NS2(=O)=O` (centres unmarked) [ONC0003124, bendroflumethiazide] reads 78.23%; that for `COc1cc(C[C@H]2C(=O)OC[C@@H]2Cc2ccc(OC)c(OC)c2)ccc1O` [ONC0002530, arctigenin], 94.19%.
For `CCOc1cc(N2CCC(O)CC2)ccc1Nc1ncc2c(n1)N(C)c1ccccc1C(=O)N2C` [ONC0001782, xmd892] the value was 89.29%; for `O=C(CN1C2=NCCN2c2ccccc21)c1ccc(-c2ccccc2)cc1` [ONC0002544, cct031374], 68.21%; for `CN(C)[C@@H]1CCc2[nH]c3ccc(NC(=O)c4ccc(F)cc4)cc3c2C1` [ONC0002678, ly344864], 85.04%.
`CNC(=O)c1ccccc1Sc1ccc2c(/C=C/c3ccccn3)n[nH]c2c1` [ONC0000408, axitinib]: the “% viability” value stood at 61.39%.
On to `Cc1ccc(NC(=O)Nc2cc(C(F)(F)F)ccc2F)cc1Nc1ccc2c(c1)NC(=O)/C2=C\c1ccc[nH]1` [ONC0000024, gnf5837], for which the “% viability” value is listed as 83.28%.
Consider `CC(C)(NS(=O)(=O)c1ccc(Oc2ccc(F)cc2)cc1)C(=O)NO` [ONC0001662, cp471474], for which the “% viability” value is recorded as 77.34%.
For `CC(CN1c2ccccc2Sc2ccccc21)N(C)C` (centres unmarked) [ONC0000501, promethazine hydrochloride] the value was 70.91%.
As to `CC[C@@H](CO)NC(=O)[C@@H]1C=C2c3cccc4c3c(cn4C)C[C@H]2N(C)C1` [ONC0003158, methysergide], the “% viability” value is 77.63%.
For `CNC(=O)c1ccc(N2C(=S)N(c3cnc(C#N)c(C(F)(F)F)c3)C(=O)C23CCC3)cc1F` [ONC0005202, arn509] the value was 113%; for `CC(C)[C@H](CO)Nc1nc(Nc2cc(N)cc(Cl)c2)c2ncn(C(C)C)c2n1` [ONC0000765, aminopurvalanola], 80.13%.
On to `O=C(c1ccc(OCCN2CCCCC2)cc1)c1c(-c2ccc(O)cc2)sc2cc(O)ccc12` [ONC0004031, raloxifene hydrochloride], for which the “% viability” value came out at 81.38%.
For `O=C1c2ccccc2-c2n[nH]c3cccc1c23` [ONC0001670, pyrazolanthrone] the value was 81.21%.
For `Cc1cc(CCC[C@H](CC(=O)NO)C(=O)N[C@H](C(=O)N[C@H](C)c2ccccc2)C(C)(C)C)ccc1-c1ccccc1` [ONC0002525, uk356618] the value was 62.33%; for `CCc1c(-c2ccccc2)c(-c2ccccc2)nn1-c1ccccc1-c1cccc(OCC(=O)O)c1` [ONC0001328, bms309403], 103.8%.
The result for `CO[C@H]1CC[C@H](N2C(=O)CNc3ncc(-c4ccc(C(C)(C)O)nc4)nc32)CC1` [ONC0001106, cc223] reads 54.41%; that for `Cc1ccc(Cl)cc1N(CC(=O)Nc1c(F)cccc1F)S(C)(=O)=O` [ONC0004491, fph1 brd6125], 61.11%.
In the case of `COc1cccc(/C=N/C=N/c2cccc(OC)c2)c1` [ONC0002505, dmeob], the “% viability” value was 75.27%.
Consider `COc1cc2c(cc1OC)-c1c/c(=N\c3c(C)cc(C)cc3C)n(C)c(=O)n1CC2` [ONC0003609, trequinsin], for which the “% viability” value turned out to be 63.58%.
For `Cn1nnc(-c2ccc(-c3ccc(N4C[C@H](CO)OC4=O)cc3F)cn2)n1` [ONC0000988, tedizolid] the value was 70.21%.
For `CS(=O)(=O)OC[C@H](O)[C@@H](O)COS(C)(=O)=O` [ONC0002110, treosulfan], the “% viability” value is 75.47%.
Consider `Cc1cccc(Nc2ccncc2S(=O)(=O)NC(=O)NC(C)C)c1` [ONC0004269, torsemide], for which the “% viability” value was determined as 66.39%.
The result for `C[C@]12CC[C@H]3[C@@H](CCC4=CC(=O)CC[C@@]43C)[C@@H]1CC[C@@H]2C(=O)CO` [ONC0002930, desoxycortone] reads 75.34%.
